Drawing on the supplement of paper PMC6331611, this text covers normalized intracellular growth for 25 molecules.

The experiment relates to Salmonella enterica serovar Typhimurium SL1344. Briefly: normalized intracellular growth (luminescence, IQM-normalized) in RAW264.7 macrophages (fraction of plate interquartile mean); higher = more bacterial growth (less inhibition). As to conditions: 10 µM.

± gives the standard deviation of the averaged measurements. In all, about 1,600 compounds were measured (“normalized intracellular growth (luminescence, IQM-normalized) in RAW264.7 macrophages”: median about 1, lowest 2% from about 0.43 on). The list shows a part of the results.

As to `O=c1[nH]c(=O)c2ccccc2o1`, the normalized intracellular growth came out at 0.963 ± 0.026 (time point: T3 (3 h)) and 1.02 ± 0.078 (time point: Tfinal (~6 h)).

In the case of `Nc1ccn([C@@H]2O[C@H](CO)[C@@H](O)[C@@H]2O)c(=O)n1`, the normalized intracellular growth is, setting by setting: (time point: T3 (3 h)) 0.9664 ± 0.0095; (time point: Tfinal (~6 h)) 0.997 ± 0.037.

As to `CC(=O)Oc1cccc(C)c1` [meta-CRESYL ACETATE], the normalized intracellular growth is, setting by setting: (time point: T3 (3 h)) 0.91 ± 0.021; (time point: Tfinal (~6 h)) 0.667 ± 0.22.

`FC(F)(F)COCC(F)(F)F` gave a normalized intracellular growth (time point: T3 (3 h)) of 0.946 ± 0.09 and a normalized intracellular growth (time point: Tfinal (~6 h)) of 0.9 ± 0.27.

`CN1Cc2c(N)cccc2C(c2ccccc2)C1` (stereo not given): the normalized intracellular growth amounted to 1.11 ± 0.062 (time point: T3 (3 h)) and 1.36 ± 0.13 (time point: Tfinal (~6 h)).

Molecule `CC(C)(O)c1ccccc1CC[C@@H](SCC1(CC(=O)O)CC1)c1cccc(/C=C/c2ccc3ccc(Cl)cc3n2)c1` had a normalized intracellular growth (time point: T3 (3 h)) of 0.989 ± 0.057 and a normalized intracellular growth (time point: Tfinal (~6 h)) of 1.2 ± 0.046.

With `CCN[C@@H]1C[C@H](N)[C@@H](O[C@H]2OC(CN)=CC[C@H]2N)[C@H](O)[C@H]1O[C@H]1OC[C@](C)(O)[C@H](NC)[C@H]1O`, the normalized intracellular growth was 0.986 ± 0.033 (time point: T3 (3 h)) and 0.632 ± 0.25 (time point: Tfinal (~6 h)).

Take `OCc1ccccc1O`: the normalized intracellular growth is, setting by setting: (time point: T3 (3 h)) 1.07 ± 0.017; (time point: Tfinal (~6 h)) 1.01 ± 0.022.

Molecule `COc1c(N2CCNC(C)C2)c(F)cc2c(=O)c(C(=O)O)cn(C3CC3)c12` (stereo not given) showed a normalized intracellular growth (time point: T3 (3 h)) of 1.02 ± 0.13 and a normalized intracellular growth (time point: Tfinal (~6 h)) of 0.015 ± 0.0035.

In the case of `O=C(c1ccccc1)c1ccc2n1CCC2C(=O)O` (stereo not given), the normalized intracellular growth came to 0.995 ± 0.065 (time point: T3 (3 h)) and 1.09 ± 0.34 (time point: Tfinal (~6 h)).

Regarding `CN(C)CC(c1ccc(O)cc1)C1(O)CCCCC1` (stereo not given), the normalized intracellular growth by setting is: (time point: T3 (3 h)) 0.691 ± 0.059; (time point: Tfinal (~6 h)) 0.688 ± 0.074.

`NC(=O)[C@@H]1CCCN1C(=O)[C@H](Cc1c[nH]cn1)NC(=O)[C@@H]1CCC(=O)N1`: the normalized intracellular growth turned out to be 1.02 ± 0.038 (time point: T3 (3 h)) and 0.959 ± 0.044 (time point: Tfinal (~6 h)).

For `CO/N=C(\C(=O)N[C@@H]1C(=O)N2C(C(=O)OC(C)OC(C)=O)=C(COC(N)=O)CS[C@H]12)c1ccco1` (stereo not given in full), the normalized intracellular growth is, setting by setting: (time point: T3 (3 h)) 1.09 ± 0.063; (time point: Tfinal (~6 h)) 0.977 ± 0.23.

On to `Nc1ccn([C@@H]2CS[C@H](CO)O2)c(=O)n1`, for which the normalized intracellular growth reads like this: (time point: T3 (3 h)) 0.985 ± 0.021; (time point: Tfinal (~6 h)) 0.972 ± 0.13.

Turning to `Cc1cc(N)c2ccccc2[n+]1CCCCCCCCCC[n+]1c(C)cc(N)c2ccccc21`, the normalized intracellular growth was 0.978 ± 0.032 (time point: T3 (3 h)) and 1.12 ± 0.068 (time point: Tfinal (~6 h)).

As to `COc1ccccc1OCC(O)COC(N)=O` (stereo not given), the normalized intracellular growth reads like this: (time point: T3 (3 h)) 1.05 ± 0.018; (time point: Tfinal (~6 h)) 0.806 ± 0.073.

Take `CCNC(=O)/C=C/c1cccc(Br)c1`: the normalized intracellular growth came to 1 ± 0.066 (time point: T3 (3 h)) and 0.89 ± 0.15 (time point: Tfinal (~6 h)).

Take `C=CCCCCCCCCC(=O)[O-].C=CCCCCCCCCC(=O)[O-].[Zn+2]`: the normalized intracellular growth stood at 1 ± 0.048 (time point: T3 (3 h)) and 0.832 ± 0.1 (time point: Tfinal (~6 h)).

As to `COC(=O)Nc1nc2cc([S+]([O-])c3ccccc3)ccc2[nH]1` (stereo not given), the normalized intracellular growth runs as follows: (time point: T3 (3 h)) 0.933 ± 0.021; (time point: Tfinal (~6 h)) 1.14 ± 0.082.

Turning to `CCN(CC)CCOCCOC(=O)C(CC)(CC)c1ccccc1`, the normalized intracellular growth reads like this: (time point: T3 (3 h)) 0.997 ± 0.011; (time point: Tfinal (~6 h)) 0.99 ± 0.1.

For `CCCOc1ccc(C(=O)OCCN(CC)CC)cc1N`, the normalized intracellular growth reads like this: (time point: T3 (3 h)) 1.01 ± 0.023; (time point: Tfinal (~6 h)) 0.911 ± 0.077.

Regarding `CC(=O)OCC(=O)[C@@]1(OC(C)=O)[C@@H](C)C[C@H]2[C@@H]3C[C@H](F)C4=CC(=O)C=C[C@]4(C)[C@@]3(F)[C@@H](O)C[C@@]21C`, the normalized intracellular growth was 0.984 ± 0.045 (time point: T3 (3 h)) and 0.955 ± 0.012 (time point: Tfinal (~6 h)).

For the molecule `CC[C@@H](CO)NCCN[C@@H](CC)CO`, the normalized intracellular growth reads like this: (time point: T3 (3 h)) 1.22 ± 0.32; (time point: Tfinal (~6 h)) 1.2 ± 0.2.

Turning to `C[C@]1(Cn2ccnn2)[C@H](C(=O)O)N2C(=O)C[C@H]2S1(=O)=O`, the normalized intracellular growth came to 1.1 ± 0.047 (time point: T3 (3 h)) and 1.05 ± 0.086 (time point: Tfinal (~6 h)).

As to `C=CCOC(Cn1ccnc1)c1ccc(Cl)cc1Cl` (stereo not given), the normalized intracellular growth stood at 0.919 ± 0.028 (time point: T3 (3 h)) and 1.02 ± 0.044 (time point: Tfinal (~6 h)).
